Results taken from patent publication US11219607B2, “Methods for suppressing cancer-related cachexia” (Ohio State Innovation Foundation, priority 2013, dated 2022).
“Also recorded” adds a separate entry of the source. At least one structure is not confirmed: it was looked up by name or label, or the drawing left a doubt.

Test system: C-26 tumor-bearing mice
Assay: Survival and body weight comparison of HDAC inhibitors, C-26 model
Format: in vivo, CD2F1 mice
Conditions: vorinostat 50 mg/kg p.o. once daily, romidepsin 0.6 mg/kg i.p. twice weekly, from day 6
Experimental: In one aspect, tumors were established by subcutaneous injection of C-26 cells (0.5×10^6 cells in 0.1 ml) into the right flank of male CD2F1 mice (approximately 6 weeks of age; Harlan Laboratories, Indianapolis, Ind.)(11). Tumor-bearing mice, as well as tumor-free mice serving as non-cachectic controls, were randomized into groups that were treated with either AR-42 (50 mg/kg, p.o. by gavage, every other day; Arno Therapeutics, Inc., Flemington, N.J.) or vehicle (0.5% methylcellulose (w/v) and 0.1% Tween-80 (v/v) in sterile water) starting 6 days after cell injection. To investigate the effect of delayed treatment, treatments with drug and/or vehicle were started 6, 10 and 12 days after cancer cell injection.
In another aspect, the effects of AR-42 were compared to other HDAC inhibitors. […]
The effects of AR-42 were compared to other HDAC inhibitors (i.e., vorinostat and romidepsin) in C-26 tumor-bearing mice. Starting on day 6 after tumor cell injection, mice were treated continuously with AR-42 (50 mg/kg every other day, orally), vorinostat [50 mg/kg once daily, orally (13)], romidepsin [0.6 mg/kg twice weekly, i.p. (14)], or vehicle, until weight loss, as determined by daily body weight measurements and subtraction of tumor mass, reached 20% of starting weight. […]

SMILES: C/C=C1\NC(=O)[C@H]2CSSCC/C=C/[C@H](CC(=O)N[C@H](C(C)C)C(=O)N2)OC(=O)[C@H](C(C)C)NC1=O [romidepsin]
- protective effect on body weight / attenuation of cachexia-induced weight loss: limited or no appreciable protective effects; also recorded: ineffective
